Test results as given in patent publication US10633704B2, “Diagnostic and immunotherapy compositions and methods for disease states mediated by inhibitor-resistant CD8 T-cells” (priority 2010, dated 2020).
At least one structure is not confirmed: it was looked up by name or label, or the drawing left a doubt.

Tested on: CD8bm12-1 T cell clone
Test: Proliferation assay (3H-thymidine) of CsA/RAPA-resistant CD8 T cell clone CD8bm12-1 activated by immobilized anti-CD3 without or with anti-CD28
Type: cell-based, mouse (C57BL/6)
Details: anti-CD3 and anti-CD28, rapamycin
Protocol: Proliferation assays were done with anti-CD3 (145-2Cl 1) without or with anti-CD28 (37.51). Antibodies in 50 μl of PBS/well were used to coat 96-well tissue culture plates (Costar) overnight at 4° C. Antibodies were shaken off and wells washed 1× with 150 μl of RPMI complete media prior to their use in proliferation assays. Experimental wells were pulsed with 0.5 μCi/well ^3H-thymidine (ICN, Costa Mesa, Calif.) for 10-12 hours at 24-36 or 36-48 hours of the culture cycle. Cyclosporine A (Sigma Chemical Co.; St. Louis, Mo.) dissolved in 200 proof ethanol and CH-223191 (Calbiochem; San Diego, Calif.) dissolved in dimethylsulfoxide were used at indicated concentrations. The no treatment controls in each experiment included vehicle controls for both ethanol and dimethylsulfoxide.
FIGS. 6A and 6B show proliferation plots of CD8bm1 (▪) and CD8bm12-1 (●), both activated by immobilized anti-CD3 and exposed to a full range of cyclosporine A (the results shown in FIGS. 6A and 6B result from two separate experiments conducted).

Question: For CO[C@H]1C[C@@H]2CC[C@@H](C)[C@@](O)(O2)C(=O)C(=O)N2CCCC[C@H]2C(=O)O[C@H]([C@H](C)C[C@@H]2CC[C@@H](O)[C@H](OC)C2)CC(=O)[C@H](C)/C=C(\C)[C@@H](O)[C@@H](OC)C(=O)[C@H](C)C[C@H](C)/C=C/C=C/C=C/1C [rapamycin, (3 S,6R,7E,9R,10R,12R,14S,15E,17E, 19E,21S,23 S,26R,27R,34aS)-9,10,12,13,14,21,22,23,24,25,26,27,32,33,34,34a-hexadecahydro-9,27-dihydroxy-3-[(1R)-2-[(1S,3R,4R)-4-hydroxy-3-methoxycyclohexyl]-1-methylethyl]-10,21-dimethoxy-6,S,12,14,20,26-hexamethyl-23,27-epoxy-3H-pyrido[2,1-c][1,4]oxaazacyclohentriacontine-1,5,11,2S,29(4H,6H,31H) pentone], which “effect on proliferation of CD8bm12-1” value (media with 1 ug/ml CsA) is on record?
Answer: blocked proliferation

Question: And the “effect on proliferation of CD8bm12-1” value (media without CsA)?
Answer: enhanced proliferation
